Laboratory results published in patent publication US12030905B2, “Steviol glycoside compounds, compositions for oral ingestion or use, and method for enhancing steviol glycoside solubility” (Cargill, Incorporated, priority 2014, dated 2024).
Some of these results come from one statement about several compounds together.

Assay: Instantaneous solubility in deionized water at room temperature
Assay type: physicochemical
Conditions: compounds 1-4 present at low concentrations; instantaneous and equilibrium solubility studied
Description: The composition can optionally be expressed in terms of the concentration of one or more steviol glycoside(s). Beneficially, it has been founds that compound(s) 1, 2, 3, and/or 4, can improve solubility of steviol glycosides in an aqueous solution, and therefore compositions can be prepared having a greater concentration of steviol glycosides in solution. As used herein “instantaneous solubility” refers to the solubility of a steviol glycoside, or mixture of steviol glycosides, that are vigorously mixed with deionized water at room temperature (25° C.). As used herein “equilibrium solubility” refers to the solubility of a steviol glycoside, or mixture of steviol glycosides, that are vigorously mixed with deionized water at 80° C. for 15 minutes, cooled to room temperature (25° C.), and then observed up to 4 days. Clear solutions without precipitates are considered soluble. Unless indicated otherwise herein, the term “solubility” refers to “equilibrium solubility.”
Instantaneous solubility is determined by mixing steviol glycoisde with deionized water vigorously for 10 minutes at room temperature. Equilibrium solubility is determined by heating deionized water with steviol glycoside at 80° C. for 15 minutes and cooling down to room temperature for observation up to 4 days. Clear solutions without precipitates are considered soluble.

Effect on the solubility of rebD and rebM in a composition, significant effect:
C=C1C[C@@]23CCC4[C@](C)(C(=O)OC5OC(CO)C(O)C(O)C5OC5OC(CO)C(O)C(O)C5O)CCC[C@@]4(C)[C@@H]2CC[C@]1(OC1OC(COC2OC(CO)C(O)C(O)C2O)C(O)C(OC2OC(CO)C(O)C(O)C2O)C1OC1OC(CO)C(O)C(O)C1O)C3 (stereo partly shown) [Compound 1]
C=C1C[C@@]23CCC4[C@](C)(C(=O)OC5OC(CO)C(O)C(OC6OC(CO)C(O)C(O)C6O)C5OC5OC(CO)C(O)C(O)C5O)CCC[C@@]4(C)[C@@H]2CC[C@]1(OC1OC(COC2OC(CO)C(O)C(O)C2O)C(O)C(OC2OC(CO)C(O)C(O)C2O)C1OC1OC(CO)C(O)C(O)C1O)C3 (stereo partly shown) [Compound 2]
C=C1C[C@@]23CCC4[C@](C)(C(=O)OC5OC(CO)C(O)C(O)C5OC5OC(CO)C(O)C(O)C5O)CCC[C@@]4(C)[C@@H]2CC[C@]1(OC1OC(CO)C(O)C(OC2OC(COC4OC(CO)C(O)C(O)C4O)C(O)C(O)C2O)C1OC1OC(CO)C(O)C(O)C1O)C3 (stereo partly shown) [Compound 3]
C=C1C[C@@]23CCC4[C@](C)(C(=O)OC5OC(CO)C(O)C(OC6OC(CO)C(O)C(O)C6O)C5OC5OC(CO)C(O)C(O)C5O)CCC[C@@]4(C)[C@@H]2CC[C@]1(OC1OC(CO)C(O)C(OC2OC(COC4OC(CO)C(O)C(O)C4O)C(O)C(O)C2O)C1OC1OC(CO)C(O)C(O)C1O)C3 (stereo partly shown) [Compound 4]
